Measured values: PubChem BioAssay AID226 (DTP/NCI, 2004)
The list shows only some results of the screen, not a fair sample: its compounds were picked by chemical class. Not every dose and run of a compound is shown. T/C is the treated group as % of the vehicle group. Some entries give survivors of the animals treated and no T/C: the source files T/C as zero there, which appears to mark a toxic dose or a test without result, not a measured value. Some survivor counts are full or nearly so, which does not show that the dose was tolerated: survival well below the control is almost never listed, so the zero probably covers shortened survival too. Survivors were counted at the toxicity check, usually on the fifth day, unless a day is given; later deaths do not show. Schedules are NCI's codes, taken here to give the interval after Q, in days (D) or hours (H), and the number of doses after X. Some entries hold several experiments; their values stand side by side, smallest first. For survival time, this PubChem deposit counts one and a half times the control or more as active, and values a quarter to a half above the control carry no call in these data; other NCI protocols may use other cut-offs. Some T/C values carry the count of animals alive at the toxicity check (mostly the fifth day); without a count or a note in brackets, all were alive then.

System: B6C3F1 mice, intracerebral ependymoblastoma, median survival T/C
Test: NCI In Vivo Anticancer Drug Screen. Data for tumor model Ependymoblastoma (intracerebral) in B6C3F1 mice
Conditions: T/C endpoint: median survival time, schedule: Q01DX005 (ip), higher T/C = longer survival
Method: The antitumor activity of compounds was measured in mice bearing transplantable tumors. Survival or tumor size were measured and the results are expressed as the measurement made in the treated group (T) divided by the measurement made in the vehicle treated control group (C). The tumor model used in this assay is Ependymoblastoma (intracerebral) in B6C3F1 mice

[1] = dose: 16.0 mg/kg/injection, vehicle: Klucel (hydroxypropylcellulose) (HPC)
[2] = dose: 256.0 mg/kg/injection, vehicle: saline with Tween-80

Structure (SMILES): CN(N=O)C(=N)N[N+](=O)[O-]
- T/C (dose: 4.0 mg/kg/injection, vehicle: Klucel (hydroxypropylcellulose) (HPC)): 98 and 108 % of control
- T/C (dose: 8.0 mg/kg/injection, vehicle: Klucel (hydroxypropylcellulose) (HPC)): 93 and 103 % of control
- T/C [1]: 109 % of control
- survivor count [1]: 10 of 10
- survivor count (dose: 32.0 mg/kg/injection, vehicle: Klucel (hydroxypropylcellulose) (HPC)): 8 of 10 and 10 of 10
- survivor count (dose: 64.0 mg/kg/injection, vehicle: Klucel (hydroxypropylcellulose) (HPC)): 4 of 10

Structure (SMILES): CN(CCCl)/N=N/c1nc[nH]c1C(N)=O
- T/C (dose: 16.0 mg/kg/injection, vehicle: saline): 122 % of control
- T/C (dose: 32.0 mg/kg/injection, vehicle: saline): 134 % of control
- T/C (dose: 64.0 mg/kg/injection, vehicle: saline): 146 % of control
- T/C (dose: 128.0 mg/kg/injection, vehicle: saline): 142 % of control
- T/C (dose: 256.0 mg/kg/injection, vehicle: saline): 157 % of control

Structure (SMILES): NC(=O)c1[nH]cnc1/N=N\N(CCCl)CCCl
- T/C (dose: 16.0 mg/kg/injection, vehicle: saline with Tween-80): 109, 111, 132 % of control
- T/C (dose: 32.0 mg/kg/injection, vehicle: saline with Tween-80, evaluated on day 40): 125 % of control
- T/C (dose: 32.0 mg/kg/injection, vehicle: saline with Tween-80, evaluated on day 60): 107, 123, 130 % of control
- T/C (dose: 64.0 mg/kg/injection, vehicle: saline with Tween-80, evaluated on day 40): 117 % of control
- T/C (dose: 64.0 mg/kg/injection, vehicle: saline with Tween-80, evaluated on day 60): 118, 123, 142 % of control
- T/C (dose: 128.0 mg/kg/injection, vehicle: saline with Tween-80, evaluated on day 40): 132 % of control
- T/C (dose: 128.0 mg/kg/injection, vehicle: saline with Tween-80, evaluated on day 60): 97, 127, 150 % of control [9 of 10 alive]
- T/C [2]: 156 % of control [9 of 10 alive]
- survivor count [2]: 8 of 10, 9 of 10, 10 of 10
- survivor count (dose: 512.0 mg/kg/injection, vehicle: saline with Tween-80): 0 of 10
